Results on one substance are retold here after article PMC5963096.

Chains of the proteins cited; added tags and fusions are not shown.
UniProt Q14680: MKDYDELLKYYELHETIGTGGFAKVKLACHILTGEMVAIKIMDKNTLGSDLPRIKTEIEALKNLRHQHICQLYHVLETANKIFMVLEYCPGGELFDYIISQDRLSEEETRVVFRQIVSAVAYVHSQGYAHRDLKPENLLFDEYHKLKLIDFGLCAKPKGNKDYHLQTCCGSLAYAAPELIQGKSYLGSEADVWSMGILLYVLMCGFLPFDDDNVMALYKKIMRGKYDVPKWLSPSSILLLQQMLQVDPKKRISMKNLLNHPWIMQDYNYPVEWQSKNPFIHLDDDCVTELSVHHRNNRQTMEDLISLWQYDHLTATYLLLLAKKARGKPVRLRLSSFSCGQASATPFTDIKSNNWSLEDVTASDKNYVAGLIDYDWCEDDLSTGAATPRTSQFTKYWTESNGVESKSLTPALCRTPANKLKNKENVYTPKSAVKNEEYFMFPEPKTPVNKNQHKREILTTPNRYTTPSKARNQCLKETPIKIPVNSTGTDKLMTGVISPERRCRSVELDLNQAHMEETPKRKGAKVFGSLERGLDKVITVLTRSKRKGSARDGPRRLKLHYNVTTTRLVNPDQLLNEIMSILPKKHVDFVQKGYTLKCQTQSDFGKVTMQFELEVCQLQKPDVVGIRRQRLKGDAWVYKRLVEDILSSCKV

Results are given in words; binding and its absence hold for the method and conditions named. Binding seen in cells or lysates may run through a third protein. Some results given as binding are weak or reduced against the parent protein; the word gives no strength.

Test [1] deals with T1, Serine-threonine kinase receptor-associated protein (STRAP) (human (endogenous in SW480, HCT116, HCT116 Bax-/-)) (UniProt Q9Y3F4).
T1 sequence: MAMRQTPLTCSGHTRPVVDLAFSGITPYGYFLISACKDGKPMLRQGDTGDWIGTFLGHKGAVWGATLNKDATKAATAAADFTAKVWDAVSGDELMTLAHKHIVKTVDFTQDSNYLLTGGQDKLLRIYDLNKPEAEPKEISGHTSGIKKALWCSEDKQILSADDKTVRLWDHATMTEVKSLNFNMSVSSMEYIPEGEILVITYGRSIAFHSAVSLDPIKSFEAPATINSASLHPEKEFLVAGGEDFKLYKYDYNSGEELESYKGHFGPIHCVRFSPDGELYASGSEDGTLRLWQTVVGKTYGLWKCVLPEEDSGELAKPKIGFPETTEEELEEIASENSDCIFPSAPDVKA
Put plainly: co-IP; cell extracts of SW480, HCT116 WT and HCT116 Bax-/- cells, with or without sanguinarine treatment; anti-STRAP or anti-MELK antibody at 4 °C overnight, agarose beads, washed five times with lysis buffer; western blotting. For orientation: In western blotting, separated proteins are transferred to a membrane and probed.

Test [2] concerns the target T1, Serine-threonine kinase receptor-associated protein (STRAP) (human (endogenous in SW480, HCT116, HCT116 Bax-/-)). As to the kind of experiment: co-IP; whole lysates of orthotopic CRC tumor tissue from nude mice (control, sanguinarine 4 or 8 mg/kg/d, cisplatin 1 mg/kg/d); primary antibodies of MELK and STRAP added respectively; western blotting.

In the case of “Maternal embryonic leucine zipper kinase (MELK) (from UniProt Q14680 1-651) (enzyme)”, the binding entry in test [1] and in test [2] was “binds” throughout.
